# These are yes or no findings as the source states them, for the method shown. A result given as binding can be weak or reduced; the word gives no strength. Where a sequence is shown, tags or fusion partners need not be part of it.
# By UniProt entry, the sequences of proteins in these tests, tags left out. Where a name states a change or a piece, a line headed by the entry shows the natural chain unless it says otherwise.
# UniProt Q99P58: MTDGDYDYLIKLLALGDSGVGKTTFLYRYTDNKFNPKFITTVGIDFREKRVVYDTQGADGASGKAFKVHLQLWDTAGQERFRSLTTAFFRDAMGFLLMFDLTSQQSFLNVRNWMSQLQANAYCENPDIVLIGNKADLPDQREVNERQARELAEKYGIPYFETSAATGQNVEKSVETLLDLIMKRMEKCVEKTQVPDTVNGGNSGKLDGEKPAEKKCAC
# Target: Rab27B(CA)ΔCys, pGBD-C1 two-hybrid fusion (UniProt Q99P58)
# Test: two-hybrid; pGBD-C1-Rabs(CA)ΔCys as bait, pAct2-RBD27 (WT or mutant) as prey; growth on synthetic complete medium lacking adenine, histidine, leucine and tryptophan, 30°C, ~1 week
binder,measurement,value
"RBD27-WT (synaptotagmin-like protein homology domain of Slp2-a), pAct2 two-hybrid fusion (domain or fragment, UniProt Q99N50-1 1-87) MIDLSFLTEEEQDAILKVLQRDAALKRAEEERVRHLPEKIKDDQQLKNMSGQWFYEAKAKRHRDKIHGADIIRASMRRKKLPAAAEQ",binding,binds
"RBD27-mut (E11A/R32A), pAct2 two-hybrid fusion (domain or fragment, UniProt Q99N50 1-87) MIDLSFLTEEAQDAILKVLQRDAALKRAEEEAVRHLPEKIKDDQQLKNMSGQWFYEAKAKRHRDKIHGADIIRASMRRKKLPAAAEQ",binding,no binding
